The test can be described thus: qHTS Assay for Modulators of Lamin A Splicing. Particulars: HeLa LMNA splicing GFP/RFP minigene ratio, 48 h. Summed up: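 Read-out is the ratio of GFP to DsRed2 object intensity, acquired by 488 nm laser-scanning cytometry on HeLa lamin A-EGFP minigene reporter cells. Compound incubation 48 hrs at 37 °C in Opti-MEM with 2% FBS; DMSO 0.5% final.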
Where [1] appears, read: measured here: RFP viability control channel.
The mark [2] stands for this setting: measured here: GFP splicing reporter channel.

Several values for one entry are separate records, joined by “and”; a condition that tells them apart may be missing. Equal values may be shown once. Some of the results follow. The main result of the screen is listed elsewhere. These columns were measured beside it and carry no call. The list favours compounds with an active or inconclusive main result. The note in brackets gives the kind of curve behind each potency; many fits are weak.

Regarding `COc1ccc(-c2cc(-c3ccccc3)n3ncnc3n2)cc1`, under setting [1], the AC50 (commonly the concentration at which the activity in the assay is half-maximal) was 11.2 µM [rising, partial curve]. Turning to `CN(C(=O)c1cc(-n2cnnc2)ccc1Cl)c1ccccc1`, the AC50 by setting is: under setting [2], 0.00891 µM [rising, full curve, poor fit]; under setting [1], 0.00447 µM [rising, full curve, poor fit].

With `N#Cc1nc(-c2cccs2)oc1NCc1ccc(Cl)cc1`, the AC50 under setting [1] is 14.1 µM [rising, single point].

`COc1ccc(C(C#N)N2N=C(C)CC2(C)C)cc1` (centres undefined): under setting [1], the AC50 was 0.316 µM [falling, full curve, poor fit].

On to `Cc1ccc(Cl)cc1-n1ncc2c(NC3CCCCCC3)ncnc21`, for which the AC50 was 0.0398 µM [falling, full curve, poor fit] under setting [2] and 0.02 µM [falling, full curve, poor fit] under setting [1]. Turning to `COCC(C)n1c(SCC(=O)N2CCc3ccccc3C2)nc2ccccc2c1=O` (centres undefined), the AC50 is 12.6 µM [rising, single point] under setting [2] and 20 µM [rising, partial curve] under setting [1]. Turning to `COc1ccc(-c2csc(N3CCN(C(=O)c4ccccc4)CC3)n2)cc1`, the AC50 under setting [1] is 17.8 µM [rising, single point]. Take `CCOC(=O)COc1cc(-n2c(=S)[nH]c3ccccc3c2=O)c(Cl)cc1Cl`: the AC50 under setting [2] is 0.251 µM [rising, full curve, poor fit]. Turning to `NC(N)=NC(N)=NCCc1ccccc1`, the AC50 under setting [2] is 0.224 µM [falling, full curve]; the AC50 under setting [1] is 398 nM [falling, full curve] and 35.5 µM [rising, single point]. Turning to `CCCCc1nc2c(c3c1C[C@H](C)OC3)CN(C(=O)c1cccnc1)CC2`, the half-maximal activity concentration (AC50) is, setting by setting: under setting [2], 0.0316 µM [rising, full curve, poor fit]; under setting [1], 0.112 µM [rising, full curve]. For `COc1cc(NC(=O)c2cc(-c3cccs3)on2)cc(OC)c1OC`, the AC50 was 15.8 µM [rising, single point] under setting [2] and 14.1 µM [rising, single point] under setting [1].

With `Cc1cccc(C(O)(C(=O)NNc2ccc3ccccc3n2)c2cccc(C)c2)c1`, the AC50 under setting [1] is 20 µM [rising, partial curve, poor fit]. On the same count and under the same terms, to `Cc1nnc(SCc2ccc([N+](=O)[O-])cc2)[nH]c1=O` belongs 0.2 µM [falling, full curve, poor fit]. For the compound `O=S(=O)(c1cccs1)n1nnc2ccccc21`, the AC50 under setting [1] is 0.00447 µM [falling, full curve, poor fit]. Regarding `CCOC(=O)N1CCN(S(=O)(=O)c2ccc(OC)c(Cl)c2Cl)CC1`, the AC50 was 15.8 µM [rising, partial curve, poor fit] under setting [2] and 11.2 µM [rising, partial curve, poor fit] under setting [1]. On to `COCCN(C(C)=O)c1nnc(-c2ccccn2)s1`, for which the AC50 was 2.51 µM [rising, partial curve] under setting [2] and 3.16 µM [rising, partial curve, poor fit] under setting [1]. Consider `Cc1nn(Cc2ccc(F)cc2)c2sc(C(=O)Nc3ccc(N4CCOCC4)cc3N3CCOCC3)cc12`, for which the AC50 by setting is: under setting [2], 12.6 µM [rising, single point]; under setting [1], 25.1 µM [rising, single point]. `CC1(C(=O)N/N=C/c2ccc([N+](=O)[O-])o2)CC1(Br)Br` (centres undefined): the AC50 reads like this: under setting [2], 15.8 µM [rising, single point]; under setting [1], 35.5 µM [rising, single point]. As for `Cc1cccc2sc(NNC(=O)c3ccc(S(=O)(=O)N4CC(C)CC(C)C4)cc3)nc12` (centres undefined), the AC50 under setting [2] was 35.5 µM [falling, single point].

`CCOc1ccc(NC(=O)N2CCN(c3nc4ccccc4s3)CC2)cc1`: the half-maximal activity concentration (AC50) under setting [2] was 17.8 µM [rising, partial curve]. For `O=C(NCc1ccc2c(c1)CCN2C(=O)c1ccc(F)cc1)c1cc2ccccc2[nH]1`, the AC50 under setting [2] was 25.1 µM [falling, single point].

On to `COc1ccccc1CNC(=O)CCC(=O)N1CC2CCCN2c2ccccc21` (centres undefined), for which the AC50 under setting [2] was 2 µM [falling, full curve, poor fit]. Take `Fc1cc(F)cc(NC(=S)NN2CCOCC2)c1`: the AC50 under setting [1] was 0.0398 µM [rising, full curve, poor fit].

For the compound `CC(NC(=O)c1cccnc1)C(=O)O` (centres undefined), the concentration at half-maximal activity (AC50) is, setting by setting: under setting [2], 0.0224 µM [falling, full curve, poor fit]; under setting [1], 0.0224 µM [falling, full curve, poor fit]. With `Cn1c(SCc2ccc(Cl)cc2)nc(C(F)(F)F)cc1=O`, the AC50 under setting [1] is 0.00501 µM [falling, full curve, poor fit]. Same read-out and setting: to `CCCCS(=O)(=O)c1sc2nc3c(cc2c1N)CCCC3` belongs 12.6 µM [rising, partial curve]; to `CC12COC3(C(=O)Nc4ccc([N+](=O)[O-])cc4)CC1CCC32C` (centres undefined), 35.5 µM [rising, single point].

As for `CCc1ccccc1-n1c(SCC(=O)Nc2ccc3c(c2)OCCO3)nc2[nH]ncc2c1=O`, the AC50 under setting [1] is 11.2 µM [rising, single point].

For `O=C(CCCOc1ccc(Cl)cc1Cl)N/N=C\C1CCCCC1`, the AC50 is 22.4 µM [falling, single point] under setting [2] and 22.4 µM [falling, single point] under setting [1]. Turning to `COc1ccc(SCc2cc(=O)c3cc(Cl)ccc3[nH]2)cc1`, the concentration at half-maximal activity (AC50) was 0.0251 µM [falling, full curve, poor fit] under setting [2] and 0.0224 µM [falling, full curve, poor fit] under setting [1]. Take `COc1ccc(Nc2cccc(Cl)c2)c(C(=O)O)c1`: the AC50 under setting [1] is 12.6 µM [rising, partial curve]. As for `Cc1nc2cc(C(=O)N3c4ccccc4CC3C)ccc2s1` (centres undefined), the AC50 is 0.316 µM [falling, full curve] under setting [2] and 0.0708 µM [falling, full curve] under setting [1]. For the compound `O=C(NC1CCCCC1)c1ccc(Cn2c(SCc3ccccc3F)nc3cccnc32)cc1`, the AC50 under setting [2] was 10 µM [falling, partial curve]. Still for that read-out and setting: the value for `COc1cccc(C(=O)Nc2cccc(C(=O)OCc3cc(=O)n4nc(C5CC5)sc4n3)c2)c1` was 1.12 µM [falling, full curve].

Take `COc1ccc(C)cc1NC(=O)CN1CCN(c2ccccc2F)CC1`: under setting [1], the concentration at half-maximal activity (AC50) is 14.1 µM [rising, single point].

(Values after PubChem BioAssay AID1487 (National Center for Advancing Translational Sciences (NCATS), 2009).)
